The list shows a part of the results, in another mix than the full data. At the low end of the ranking the order means little.

This experiment addresses SPI1 (UniProt P17947). In words: DAPPL (digital affinity profiling via proximity ligation, sequencing). Conditions: 10 mM Tris-HCl pH 7.5, 50 mM NaCl, 1 mM DTT, 4% glycerol, room temperature, 30 min; GST-TFs on glutathione beads, 16-mer random dsDNA library, 0.1% …; high values mean tight binding; double strand, one strand shown; scale: fold enrichment (6-mer frequency, TF over GST control).
In turn, GTCATA yielded a binding signal of 0.747.

Regarding GACCAT, the binding signal was determined as 0.88.

For the sequence GGAGGC, the binding signal came to 0.218.

The sequence GGTGGG gave a binding signal of 0.624.

CGGCAG: the binding signal was found to be 0.768.

Consider TGGCGG, for which the binding signal amounted to 0.823.

CAGGCC yielded a binding signal of 0.743.

Take CAGCCA: the binding signal came to 0.821.

In turn, GAGTAT yielded a binding signal of 0.626.

Take CGGGCG: the binding signal worked out at 0.415.

GTGGGC displayed a binding signal of 0.795.

AGTAGG registered a binding signal of 0.758.

In the case of GGCGAT, the binding signal was determined as 0.842.

In turn, GAACGA came in with a binding signal of 0.769.

TCGGGC: the binding signal was 0.49.

TAGAGG yielded a binding signal of 0.96.

Regarding ACGGGT, the binding signal stood at 0.836.

GCATGT displayed a binding signal of 0.708.

In turn, CGGGTG gave a binding signal of 0.648.

As for CAAGTC, the binding signal stood at 0.803.

For the sequence TCGGTG, the binding signal came to 0.454.

Consider CAGTAC, for which the binding signal worked out at 0.826.

AGCAGT yielded a binding signal of 0.714.

For the sequence GAGGCC, the binding signal worked out at 0.407.

In turn, TGTAGT registered a binding signal of 0.9.

In turn, GCACGG showed a binding signal of 0.791.

AACGTG: the binding signal was determined as 0.377.

AGGTGC: the binding signal is 0.588.

In the case of GTGTGC, the binding signal was 1.01.

Regarding GGGGTT, the binding signal is 0.79.

AGGGCC had a binding signal of 0.933.

Consider GTGGTG, for which the binding signal was 0.896.

In turn, GGACGT returned a binding signal of 0.562.

Sequence GAGTTT gave a binding signal of 0.565.

Take GGGAGT: the binding signal turned out to be 0.208.

In the case of GGGTCG, the binding signal is 0.614.

For CGTTAG, the binding signal was found to be 0.857.

In the case of TCGCAG, the binding signal stood at 0.873.

On to GCGCAG, for which the binding signal turned out to be 0.856.

AACGAG: the binding signal is 0.804.

The record behind these values is PMC7862700.
